Experiment: general procedure: Fmoc solid-phase peptide synthesis; ChemMatrix Rink Amide resin (0.24 mmol/g, 0.4 g); HBTU or HATU (A); DIC/HOAt (B); DIC/HOBt (C)
Settings: whole synthesis, scale of the general procedure 0.25 mmol or 1.0 mmol

Substance: N-epsilon31-[2-(2-{2-[2-(2-{2-[(S)-4-Carboxy-4-(17-carboxyheptadecanoylamino)butyrylamino]ethoxy}ethoxy)acetylamino]ethoxy}ethoxy)acetyl][DesaminoHis7,Asp11,Glu18,Glu22,Val25,Arg26,Asp27,Glu30,Lys31]GLP-1 (7-33)-peptide amide
- final HPLC purity (HPLC (02_B4_4)): 99.6%
- final HPLC purity (HPLC (03_A3_1)): 94.3%

Reference: patent US9657079B2 (Novo Nordisk A/S, priority 2007, dated 2017)
